Experimental findings from PubChem BioAssay AID493014 (National Center for Advancing Translational Sciences (NCATS), 2011) are described below.

The experiment is described as follows: qHTS Assay to Find Inhibitors of Chronic Active B-Cell Receptor Signaling. Particulars: ABC-DLBCL IkBa-CBG/CBR reporter, luminescence ratio (green luciferase fused to IkBa over red control in TMD8 lymphoma cells), 4 h. The gist of the method:
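TMD8 ABC-DLBCL cells carrying doxycycline-inducible green luciferase fused to IkappaBalpha plus unfused red luciferase were exposed to compounds (up to 46 uM) for 4 hrs at 37C. Activity came from the overlap-corrected green/red luminescence ratio.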

The mark [1] stands for this setting: measured here: CBR red luminescence, cell number.
[2] abbreviates: measured here: IkBa-CBG green luminescence.

This is one part of the list. These are further read-outs of the screen, such as a control signal, another cell line or another target. No call is given for them. Compounds called inactive in the main read-out are mostly missing here. Potencies come from curve fits of mixed quality, noted in brackets.

Turning to `CCOC(=O)N1CCN(C(=O)CSCc2nc(-c3ccccc3C)oc2C)CC1`, the AC50 under setting [1] was 17.8 µM [falling, single point].

As for `COc1ccc(C(=O)NC(=S)N2C[C@H]3C[C@H](C2)c2cccc(=O)n2C3)cc1`, under setting [1], the AC50 was 35.5 µM [rising, single point].

As to `COCCOC(=O)C1=C(N)Oc2c(c(=O)oc3ccccc23)[C@@]12C(=O)Nc1ccccc12`, under setting [1], the concentration at half-maximal activity (AC50) is 6.51 µM [falling, partial curve].

Turning to `C/C(=N\NC(=O)c1ccccc1O)c1c(O)n(C2CCCCC2)c(=O)[nH]c1=O`, the AC50 under setting [1] was 4.47 µM [falling, full curve].

As for `COc1ccc(-n2c(O)c(C(C)=NCc3ccc4c(c3)OCO4)c(=O)[nH]c2=O)cc1`, under setting [1], the AC50 was 0.794 µM [rising, full curve, poor fit]. On to `C=CCn1c(O)c(C(C)=NCCc2c[nH]c3ccccc23)c(=O)[nH]c1=O`, for which, under setting [1], the AC50 is 35.5 µM [falling, single point]. As for `COC(=O)C1=C(c2ccc(F)cc2OCc2ccccc2)C[C@@H]2CC[C@H]1N2C(=O)NCc1ccc(OC)c(OC)c1`, the AC50 under setting [1] is 29.1 µM [falling, single point]. `COC(=O)C1=C(c2cccc(OCc3ccccc3)c2)C[C@@H]2CC[C@H]1N2C(=O)NCc1ccc2[nH]ccc2c1`: under setting [1], the AC50 was 29.1 µM [falling, single point]. On to `CC(N)Cc1cn(Cc2ccccc2)c2ccccc12` (stereo not given), for which, under setting [1], the AC50 was 35.5 µM [falling, single point]. The same measure, in the same setting: under `COc1ccc(CNc2oc(-c3cccc4ccccc34)nc2P(=O)(OC)OC)cc1` stands 35.5 µM [falling, single point]; under `O=C(O)c1cccc2c1NC(c1cccc([N+](=O)[O-])c1)C1CC(Sc3ccccc3[N+](=O)[O-])C(Cl)C21` (stereo not given), 35.5 µM [rising, single point]; under `CCc1ccc2c(CN3CC=C(c4ccccc4)CC3)cc(=O)oc2c1`, 3.66 µM [rising, single point].

As to `O=C(O)c1nonc1-c1nonc1C(=O)O`, the concentration at half-maximal activity (AC50) under setting [1] was 4.61 µM [rising, full curve, poor fit]. Turning to `Cc1cccc2sc(NC(=O)c3cccn(Cc4ccccc4)c3=O)nc12`, the AC50 under setting [1] was 20 µM [falling, partial curve, poor fit]. Regarding `O=C(Cn1ncc2c3ccccc3n(Cc3ccc(F)cc3)c2c1=O)N1CCC2(CC1)OCCO2`, the half-maximal activity concentration (AC50) reads like this: under setting [1], 4.11 µM [falling, partial curve, poor fit]; under setting [2], 5.8 µM [rising, partial curve, poor fit].

In the case of `Cn1nc(OC(=O)Nc2ccc(Cl)cc2)cc1C(F)(F)F`, the AC50 under setting [1] is 0.58 µM [rising, full curve, poor fit]. Consider `CC1(C)C(C(=O)N2CCN(c3ccc(Cl)cc3)CC2)C1(C)C`, for which the AC50 under setting [1] was 1.78 µM [rising, full curve, poor fit]. In the case of `CCC(=Nc1ccc(OC)cc1OC)c1c(O)[nH]c(=O)[nH]c1=O`, the AC50 under setting [1] was 3.98 µM [falling, single point] and the AC50 under setting [2] was 15.8 µM [falling, partial curve, poor fit]. With `CC(=O)O[C@@H]1[C@H]2[C@@H](C[C@@H](C)[C@@H]3C=CC(=O)[C@@]13C)OC(=O)[C@@H]2C`, under setting [1], the half-maximal activity concentration (AC50) is 7.94 µM [falling, partial curve, poor fit]. For `COc1cc2c3cc1Oc1cc(ccc1O)C[C@@H]1c4c(cc(OC)c(O)c4Oc4ccc(cc4)C[C@H]3N(C)CC2)CCN1C`, the AC50 under setting [2] was 13 µM [falling, partial curve]. In the case of `NNC(=O)c1ccc(Cl)cc1`, under setting [1], the AC50 is 9.2 µM [falling, partial curve]. Regarding `Fc1ccccc1CCNCc1cccc2ccccc12`, under setting [1], the AC50 was 11.6 µM [rising, partial curve, poor fit]. Regarding `C#C[C@@]1(O)CCC2C3CCC4=C/C(=N/OCC(=O)NC(C(=O)O)C(C)O)CC[C@]4(C)C3CC[C@@]21C` (stereo not given in full), the AC50 under setting [1] was 31.6 µM [rising, single point]. As to `COc1ccc(-c2cc(=Nc3ccccc3)c3cc(C)ccc3o2)cc1`, the concentration at half-maximal activity (AC50) under setting [1] was 2.59 µM [rising, full curve].

On to `O=c1[nH]c(=S)n(Cc2ccc(F)cc2)c(O)c1C=NCc1cccnc1`, for which the half-maximal activity concentration (AC50) under setting [1] is 2.31 µM [falling, single point]. Same read-out and setting: then `CCN1CCN(c2cc(=O)n3ccccc3n2)CC1`, with 17.8 µM [rising, partial curve, poor fit].

Take `Cc1cc(NC(=O)c2cccn(Cc3ccccc3)c2=O)no1`: the AC50 under setting [1] is 35.5 µM [falling, single point].

With `CCCc1[nH]nc2c1C1(C(=O)N(Cc3ccccc3)c3ccccc31)C(C(=O)OC)=C(N)O2` (stereo not given), the AC50 under setting [1] is 20.6 µM [falling, single point]. For `Cc1cc(NC(=O)CSc2c3c(nc4ccccc24)CCC3)no1`, the concentration at half-maximal activity (AC50) under setting [1] is 11.2 µM [falling, partial curve]. For `Cc1ccc2c(c1)[C@@H]1CN(C)CC[C@@H]1N2C(=O)Nc1cccc(C(F)(F)F)c1`, under setting [1], the concentration at half-maximal activity (AC50) is 29.1 µM [falling, single point]. As for `CC(=O)C1C2c3ccccc3O[C@@]1(C)N=c1s/c(=C/c3ccoc3)c(=O)n12` (stereo not given in full), the AC50 under setting [1] was 29.1 µM [falling, single point].

As to `OC(Cn1c2ccccc2c2ccccc21)C[n+]1cccc2ccccc21` (stereo not given), the half-maximal activity concentration (AC50) under setting [1] is 35.5 µM [falling, single point]. As for `CN1CC(C(=O)c2ccc([N+](=O)[O-])cc2)C(c2ccc(Cl)cc2)C1` (stereo not given), under setting [1], the AC50 is 6.31 µM [rising, partial curve, poor fit].

`COC(=O)c1ccc(CC(C(=O)c2ccccc2)N(C)C)cc1` (stereo not given): under setting [1], the AC50 was 14.1 µM [rising, partial curve, poor fit]. Regarding `Cc1ccc(N(Cc2cc(=O)[nH]c3ccccc23)C(=O)CCl)c(C)c1`, the concentration at half-maximal activity (AC50) under setting [1] was 35.5 µM [falling, single point]. As to `O=[N+]([O-])c1cnc2ccc3ccccc3c2c1`, under setting [1], the AC50 was 11.2 µM [falling, single point]. As for `CC(C)(C)n1cccc1/C=C1\C(=O)NC(=O)N(c2ccccc2)C1=O`, the AC50 under setting [1] was 23.1 µM [rising, partial curve, poor fit].

Take `CC(=NCCCN1CCOCC1)c1c(O)n(-c2ccccc2C)c(=O)[nH]c1=O`: under setting [1], the concentration at half-maximal activity (AC50) was 23.1 µM [rising, single point].
